Data as given in PubChem BioAssay AID1259405 (NCATS, 2018).

Test: 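Mouse-designed siRNAs used to find CHO productivity engineering targets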 (primary screen)
System: Chinese hamster CHO-K1 ovary cells with stable secreted eGFP expression
Knock-down reagent: single siRNA against mouse genes, 0.8 pmol siRNA per well (2 µl of 400 nM stock)
Timing: 3 days
Measured: 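Percent of the per-plate non-targeting control median for intracellular GFP per well by laser scanning cytometry and for cell viability by ATP luminescence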
Direction: GFP, % of control: higher = more GFP per well, higher productivity; viability (ATP), % of control: higher = more viable cells (more ATP)
Hit rule: 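Called active when intracellular GFP, relative to negative control, is at or above 120%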
This is one part, drawn at random, of about 50,000 reagents. Over the whole deposit, about 4,000 (8%) were called active. 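Mouse siRNA library applied to hamster cells; one well for each siRNA.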 Reagents against one gene are numbered here.

Target gene | reagent | GFP, % of control | viability (ATP), % of control | call
Pygl | 1 | 183 | 112 | active
Pygl | 2 | 90.3 | 96.6 | inactive
Pygl | 3 | 119 | 120 | inactive
Clxn | 1 | 64.1 | 61.8 | inactive
Clxn | 2 | 55.9 | 47 | inactive
Clxn | 3 | 85.7 | 78.2 | inactive
Il34 | 1 | 191 | 124 | active
Il34 | 2 | 51.5 | 86.6 | inactive
Il34 | 3 | 73.9 | 80.4 | inactive
Rsrc1 | 1 | 72.8 | 105 | inactive
Rsrc1 | 2 | 86.2 | 104 | inactive
Rsrc1 | 3 | 70.7 | 75.8 | inactive
Or51af1 | 1 | 89.9 | 60 | inactive
Or51af1 | 2 | 72.2 | 91.1 | inactive
Or51af1 | 3 | 47 | 44.4 | inactive
Hapln1 | 1 | 26.7 | 33.7 | inactive
Hapln1 | 2 | 74.4 | 48 | inactive
Hapln1 | 3 | 59.3 | 68.4 | inactive
Patz1 | 1 | 43.4 | 58.1 | inactive
Patz1 | 2 | 82.6 | 87.1 | inactive
Patz1 | 3 | 61.2 | 78.7 | inactive
Ibsp | 1 | 118 | 97.3 | inactive
Ibsp | 2 | 93.9 | 80.5 | inactive
Ppp2cb | 1 | 50.4 | 55.7 | inactive
Ppp2cb | 2 | 65 | 41.5 | inactive
Ppp2cb | 3 | 57.1 | 72.6 | inactive
Ell | 1 | 75.8 | 78.5 | inactive
Ell | 2 | 114 | 106 | inactive
Klhl7 | 1 | 59 | 72.7 | inactive
Klhl7 | 2 | 64.3 | 65.4 | inactive
Klhl7 | 3 | 101 | 81.1 | inactive
Tktl2 | 1 | 53.4 | 74 | inactive
Tktl2 | 2 | 65.2 | 58.2 | inactive
Tktl2 | 3 | 82.4 | 81.8 | inactive
Anxa11 | 1 | 78.9 | 109 | inactive
Anxa11 | 2 | 50.1 | 49.3 | inactive
Anxa11 | 3 | 80.8 | 72.6 | inactive
Epc1 | 1 | 125 | 104 | active
Epc1 | 2 | 77.3 | 76.9 | inactive
Epc1 | 3 | 64.8 | 58.1 | inactive
2310030G06Rik | 1 | 56.4 | 52.1 | inactive
2310030G06Rik | 2 | 86.2 | 77.2 | inactive
2310030G06Rik | 3 | 80.1 | 89.1 | inactive
Or8k41 | 1 | 49.6 | 57.5 | inactive
Or8k41 | 2 | 47.8 | 67.8 | inactive
Or8k41 | 3 | 53 | 79.4 | inactive
Or14j7 | 1 | 72.3 | 65 | inactive
Or14j7 | 2 | 54.9 | 68.3 | inactive
Or14j7 | 3 | 67.4 | 77.5 | inactive
Cdk2 | 1 | 77 | 58.9 | inactive
Cdk2 | 2 | 73.3 | 62.4 | inactive
Cdk2 | 3 | 38 | 83.2 | inactive
Pus3 | 1 | 49.4 | 57.5 | inactive
Pus3 | 2 | 93.7 | 63.1 | inactive
Pus3 | 3 | 51.6 | 57.1 | inactive
Or52s6 | 1 | 64 | 64.4 | inactive
Or52s6 | 2 | 84.9 | 65.9 | inactive
Or52s6 | 3 | 73.2 | 70.3 | inactive
Flywch2 | 1 | 103 | 65 | inactive
Flywch2 | 2 | 69.9 | 88.7 | inactive
Flywch2 | 3 | 50.4 | 61.4 | inactive
Rer1 | 1 | 71.4 | 106 | inactive
Rer1 | 2 | 63.6 | 61.6 | inactive
Rer1 | 3 | 71.5 | 72.8 | inactive
Vcf1 | 1 | 73.9 | 90.8 | inactive
Vcf1 | 2 | 52.7 | 61.3 | inactive
Vcf1 | 3 | 83.4 | 99.9 | inactive
Creb3l4 | 1 | 47.7 | 32.7 | inactive
Creb3l4 | 2 | 52.3 | 52.9 | inactive
Creb3l4 | 3 | 95.1 | 120 | inactive
Zbtb5 | 1 | 55.3 | 45 | inactive
Zbtb5 | 2 | 82.4 | 45.5 | inactive
Zbtb5 | 3 | 102 | 95.8 | inactive
Acsm5 | 1 | 60.2 | 43.6 | inactive
Acsm5 | 2 | 67.1 | 73.8 | inactive
Acsm5 | 3 | 56.8 | 55.3 | inactive
Rnf112 | 1 | 99.6 | 75.8 | inactive
Rnf112 | 2 | 160 | 78.6 | active
Rnf112 | 3 | 143 | 95.4 | active
Olfr255 | 1 | 72.1 | 52.4 | inactive
Olfr255 | 2 | 135 | 62.7 | active
Olfr255 | 3 | 72.2 | 74.1 | inactive
Saxo6 | 1 | 107 | 73.4 | inactive
Saxo6 | 2 | 73.5 | 36.6 | inactive
Saxo6 | 3 | 90.2 | 92.3 | inactive
Sfmbt2 | 1 | 37.5 | 70.6 | inactive
Sfmbt2 | 2 | 110 | 103 | inactive
Sfmbt2 | 3 | 64.8 | 60.7 | inactive
Hcfc1 | 1 | 57.5 | 74.9 | inactive
Hcfc1 | 2 | 76 | 65.6 | inactive
Hcfc1 | 3 | 70.5 | 50.9 | inactive
Nphs2 | 1 | 72.4 | 63.6 | inactive
Nphs2 | 2 | 67.5 | 59.5 | inactive
Nlrp9c | 1 | 76.9 | 96.6 | inactive
Nlrp9c | 2 | 65.7 | 83.2 | inactive
Nlrp9c | 3 | 79.6 | 46.3 | inactive
Acox2 | 1 | 133 | 86.6 | active
Acox2 | 2 | 86 | 68.5 | inactive
Acox2 | 3 | 84.4 | 89 | inactive
Shroom1 | 1 | 97 | 89.5 | inactive
Shroom1 | 2 | 79.4 | 67.4 | inactive
Rbm43 | 1 | 65.5 | 85.2 | inactive
Rbm43 | 2 | 66.3 | 68.9 | inactive
Rbm43 | 3 | 84.4 | 79.4 | inactive
Lrp4 | 1 | 73.3 | 52.1 | inactive
Lrp4 | 2 | 72.1 | 86.8 | inactive
Lrp4 | 3 | 69 | 74.8 | inactive
